Measurements as given in patent publication US5580953A, “Amylin antagonist peptides and uses therefor” (Amylin Pharmaceuticals, Inc., priority 1991, dated 1996).
At least one peptide structure holds a part that was inferred or is arguable (an end, a ring closure or a residue).

Test system: insulin resistance caused by administered amylin
Experiment: infusion into rats, reversal of amylin-induced insulin resistance
Assay type: in vivo
Details: infusions into rats
Description: A number of amylin antagonists have been characterized using these biological assays. The N-terminally deleted peptides ^8-37 Peptide A, ^8-37 Peptide B and ^8-32 Peptide C, were all found to compete with amylin in the receptor binding assay. […] ID. NO. 195]; ^9-37 Peptide B [SEQ. ID. NO. 27]; ^11-37 Peptide B [SEQ. ID. NO. 29]; ^18-37 Peptide B [SEQ. ID. NO. 36]; ^26 Asp^27 Val^29 Ala^8-32 Peptide C [SEQ. ID. NO. 196]; ^30 Asn^32 Tyr^8-32 Peptide C [SEQ. ID. NO. 197]; Ac-^9-32Peptide C [SEQ. ID. NO. 48]; Ac-^30 Asn^32 Tyr^9-32 Peptide C [SEQ. ID. NO. 198]; ^9-23 Peptide C^29-37 Peptide A [SEQ. ID. NO. 199]; Ac-^9-23 Peptide C^29-37 Peptide A; Adm-^9-23 Peptide C^29-37 Peptide A; Ac-^11 Arg^15 Leu^18 Arg^30 Asn^32 Tyr^9-32 Peptide C [SEQ. ID. NO. 200]; Ac-^11 Arg^18 Arg^30 Asn^32 Tyr^9-32 Peptide C [SEQ. ID. NO. 201]; Ac-^18 Arg^30 Asn^32 Tyr^9-32 Peptide C [SEQ. ID. NO. 202]. Infusions of ^8-37 Peptide B [SEQ. ID. NO. 26], ^8-32 Peptide C [SEQ. ID. NO. 47], and Ac-^11 Arg ^18 Arg^30 […] Tyr^9-32 Peptide C [SEQ. ID. NO.

Substance: Ac-LGRLSQELHRLQTYPRTNTGSDTY-NH2 [Ac-^11 Arg ^18 Arg^30 Asp^32 Tyr^9-32 Peptide C]
- reversal of insulin resistance caused by administered amylin: reverse the insulin resistance caused by administered amylin
